The test addresses NKG2D expressed on the membrane of CHO cells (UniProt P26718). The experiment in a line: binding of biotinylated protein to transfected CHO cells (FIG. 1A).

Chains of the proteins cited; added tags and fusions are not shown.
UniProt P26718: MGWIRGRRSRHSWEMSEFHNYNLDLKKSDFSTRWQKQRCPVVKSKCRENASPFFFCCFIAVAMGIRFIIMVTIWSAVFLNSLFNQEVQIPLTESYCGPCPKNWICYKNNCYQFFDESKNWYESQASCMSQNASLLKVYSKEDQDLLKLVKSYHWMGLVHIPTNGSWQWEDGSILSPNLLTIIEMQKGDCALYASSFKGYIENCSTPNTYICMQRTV

No constants are given. Whether binding was seen depends on the method and setting. Some results given as binding are weak or reduced against the parent protein; the word gives no strength.

B1: biotinylated MICB (ligand, human, UniProt Q29980 23-309, looked up)
chain: AEPHSLRYNLMVLSQDGSVQSGFLAEGHLDGQPFLRYDRQKRRAKPQGQWAENVLGAKTWDTETEDLTENGQDLRRTLTHIKDQKGGLHSLQEIRVCEIHEDSSTRGSRHFYYDGELFLSQNLETQESTVPQSSRAQTLAMNVTNFWKEDAMKTKTHYRAMQADCLQKLQRYLKSGVAIRRTVPPMVNVTCSEVSEGNITVTCRASSFYPRNITLTWRQDGVSLSHNTQQWGDVLPDGNGTYQTWVATRIRQGEEQRFTCYMEHSGNHGTHPVPSGKALVLQSQRTD
modifications: biotinylated (site not stated)
Take B1: the binding entry is reported as “binds”.
